Some entries share one result that the patent states for a list of compounds. At least one compound was matched to its structure with a doubt left.
Assay: Minipig intraduodenal (id) bioavailability of oil formulations versus iv parent complex
Assay type: in vivo, Gottingen minipig
Details: measured in mini-pigs; oil-based formulations (summary of Table I)
Procedure: Compounds were screened for oral bioavailability by injecting the formulated prodrugs directly into the duodenum (intraduodenal or id administration) of the minipig test subjects, thus bypassing the acidic environment of the stomach and thereby eliminating potentially misleading oral bioavailability results that could arise from alteration of the test article drug in the acid environment of the stomach.
The studies were conducted at Xenometrics LLC (Stillwell, Kans.) and the id bioavailability was determined using various axial ligand derivative complexes of GC4419, GC4444, GC4403 and GC4401. […] The following formula is then used to calculate the % oral bioavailability via intestinal absorption of the test article drug complex:
% Oral Bioavailability=AUC0->24 h(id)×(1/dose (mg/kg))÷AUC0->24 hr (iv)*
*Where the iv dose is 1 mg of test article drug per kilogram body weight of the mini-pig, and the dose administered id is 10 mg of test article drug per kg body weight of the mini-pig.
Male Gottingen minipigs (4-5 mo old, 9-12 kg weight) were purchased from Marshall BioResources and housed at Xenometrics. […] The concentration of the parent manganese pentaaza macrocylic ring complex (independent of the composition of the axial ligands) was measured in plasma using a validated HPLC/MS/MS method that is linear between 50 ng/mL and 20,000 ng/mL. […]

In the case of `[Cl-].[Cl-].[Mn+2].c1cc2nc(c1)CN[C@@H]1CCCC[C@H]1NCCN[C@@H]1CCCC[C@H]1NC2` [GC4403], the systemic oral bioavailability is reported as “below 20%”.
